“And” between values parts separate entries of the source, which are not always exact repeats. Identical values can stand only once. This is one part of the list. These are further read-outs of the screen, such as a control signal, another cell line or another target. No call is given for them. The list favours compounds with an active or inconclusive main result. Potencies come from curve fits of mixed quality, noted in brackets.
Assay: qHTS Assay for Modulators of Lamin A Splicing
Details: HeLa LMNA splicing GFP/RFP minigene ratio, 48 h
Procedure, shortened: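 Read-out is the ratio of GFP to DsRed2 object intensity, acquired by 488 nm laser-scanning cytometry on HeLa lamin A-EGFP minigene reporter cells. Compound incubation 48 hrs at 37 °C in Opti-MEM with 2% FBS; DMSO 0.5% final.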

[1] = measured here: RFP viability control channel
[2] = measured here: GFP splicing reporter channel

With `CCN1/C(=C\C=C\C2=[N+](CC)c3ccccc3C2(C)C)C(C)(C)c2ccccc21` the AC50 [1] was 0.1 µM [rising, full curve, poor fit].

In the case of `CC(COc1ccccc1)N(CCCl)Cc1ccccc1` (stereo not drawn), the AC50 [1] is reported as 0.00501 µM [falling, full curve, poor fit].

With `COc1ccccc1CCNC1CCC(C(C)(C)C)CC1` (stereo not drawn) the AC50 [2] was 12.6 µM [rising, single point] and the AC50 [1] was 20 µM [rising, single point].

With `COc1ccc(-n2c(SC)nc3ccccc3c2=O)cc1` the AC50 [1] was 35.5 µM [rising, single point].

In the case of `COc1cc(C(=O)N/N=C/c2ccc(OC(=O)N3CCOCC3)cc2)cc(OC)c1OC`, the AC50 [2] is reported as 6.31 µM [rising, partial curve, poor fit] and the AC50 [1] is reported as 35.5 µM [rising, single point].

With `N#CC(C#N)=Cc1cccnc1` the AC50 [2] was 0.0224 µM [falling, full curve, poor fit].

For `COc1cc(Cn2c(=O)oc3ccc(C)cc32)ccc1OC(C)C`, the AC50 [1] was 35.5 µM [rising, single point].

With `CCC[N+]12CCC(CC1)C(=C(c1ccccc1)c1ccccc1)C2` the AC50 [1] was 7.94 µM [rising, partial curve, poor fit].

In the case of `Cc1[nH]c2ccc(OC(=O)N3CCOCC3)cc2c1C(=O)OC(C)C`, the AC50 [1] is reported as 11.2 µM [rising, partial curve].

With `C=C(C)c1cccc(C(C)(C)NC(=O)NC2CN3CCC2CC3)c1` (stereo not drawn) the AC50 [1] was 35.5 µM [rising, partial curve].

For `CC(C)(C)C(=O)OCC(=O)C1CCC2C3CCC4=CC(=O)CCC4(C)C3CCC12C` (stereo not drawn), the AC50 [1] was 11.2 µM [rising, partial curve, poor fit].

With `CC1CC(NC(=O)C2C3CCC(O3)C2C(=O)O)CC(C)(C)C1` (stereo not drawn) the AC50 [2] was 31.6 µM [rising, single point] and the AC50 [1] was 35.5 µM [rising, partial curve, poor fit].

With `CCOC(=O)c1cc2c(cn1)[nH]c1ccccc12` the AC50 [2] was 0.0355 µM [falling, full curve, poor fit] and the AC50 [1] was 35.5 µM [falling, partial curve, poor fit].

In the case of `NC[C@@H](CC(=O)O)c1ccc(Cl)cc1`, the AC50 [2] is reported as 0.141 µM [falling, full curve, poor fit] and the AC50 [1] is reported as 2.51 µM [falling, full curve, poor fit].

With `CCC(=NCCc1c[nH]c2ccccc12)c1c(O)n(C)c(=O)n(C)c1=O` the AC50 [1] was 6.31 µM [rising, partial curve].

With `CC(C)c1ccc2[nH]c(O)c(N=NC(=O)c3cccc(S(=O)(=O)Nc4ccc(Cl)cc4)c3)c2c1` the AC50 [1] was 20 µM [falling, partial curve, poor fit].

In the case of `NNC(N)=O`, the AC50 [1] is reported as 5.62 µM [falling, single point].

For `CC(=O)c1ccc(Oc2nc(C)nc3c2oc2ccccc23)cc1`, the AC50 [1] was 6.31 µM [falling, partial curve, poor fit].

In the case of `COC(=O)C1=CCCN(C)C1`, the AC50 [2] is reported as 4.47 µM [rising, full curve, poor fit] and the AC50 [1] is reported as 1 µM [falling, partial curve, poor fit].

With `C=C(C)[C@H]1Cc2c(ccc3c2O[C@@H]2COc4cc(OC)c(OC)cc4[C@@H]2C3=O)O1` the AC50 [2] was 126 nM [rising, full curve, poor fit] and 1 µM [falling, full curve] and the AC50 [1] was 501 nM [rising, full curve] and 891 nM [falling, full curve].

In the case of `O=C(NC1(C(F)(F)F)Oc2ccc(Cl)cc2O1)N1CCC2(CC1)OCCO2` (stereo not drawn), the AC50 [1] is reported as 17.8 µM [rising, single point].

For `N[C@@H](CCl)C(=O)O`, the AC50 [1] was 6.31 µM [falling, single point].

For `Fc1ccc(C(OCCN2CCN(CCCc3ccccc3)CC2)c2ccc(F)cc2)cc1`, the AC50 [2] was 7.94 µM [falling, partial curve] and 11.2 µM [falling, partial curve] and the AC50 [1] was 7.08 µM [falling, partial curve, poor fit] and 4.47 µM [falling, full curve, poor fit].

With `CC(C)(C)NCC(O)c1cc(Cl)c(N)c(Cl)c1` (stereo not drawn) the AC50 [2] was 3.55 µM [falling, partial curve] and the AC50 [1] was 10 µM [rising, single point].

In the case of `CC(C)[C@@]1(NC(=O)[C@H]2CC3c4cccc5[nH]cc(c45)C[C@H]3N(C)C2)O[C@@]2(O)C3CCCN3C(=O)[C@@H](Cc3ccccc3)N2C1=O` (stereo partly drawn), the AC50 [1] is reported as 0.0631 µM [rising, full curve, poor fit].

For `O=c1[nH]c(=O)n(C2CCCCC2)c(O)c1C=Nc1ccc(N2CCOCC2)cc1`, the AC50 [1] was 0.00447 µM [falling, full curve, poor fit].

In the case of `CC(C)[C@@]1(NC(=O)[C@@H]2C[C@H]3c4cccc5[nH]cc(c45)C[C@@H]3N(C)C2)O[C@]2(O)[C@H]3CCCN3C(=O)CN2C1=O`, the AC50 [1] is reported as 3.55 µM [rising, partial curve].

In the case of `CCOC(=O)c1sc(/N=C/c2c(O)n(-c3cccc(C)c3)c(=O)[nH]c2=O)c(C#N)c1C`, the AC50 [2] is reported as 14.1 µM [falling, single point].

In the case of `CCCOP(=O)(OCCC)C(NC(=O)c1cc(OC)c(OC)c(OC)c1)c1ccccc1` (stereo not drawn), the AC50 [2] is reported as 2.82 µM [falling, partial curve, poor fit] and the AC50 [1] is reported as 35.5 µM [rising, single point].

For `COC(=O)C[C@]1(C(=O)OC)CN(C#N)N(c2ccc(Cl)cc2)C12c1ccccc1-c1ccccc12`, the AC50 [2] was 3.55 µM [falling, full curve] and the AC50 [1] was 4.47 µM [falling, full curve].

With `COC(=O)C(c1ccccc1)N1CCCCCC1` (stereo not drawn) the AC50 [2] was 3.98 µM [rising, partial curve] and the AC50 [1] was 3.98 µM [rising, single point].

In the case of `CN1C2CCC1CC(OC(=O)c1ccc(Cl)cc1)C2` (stereo not drawn), the AC50 [2] is reported as 0.0282 µM [falling, full curve, poor fit] and the AC50 [1] is reported as 0.0282 µM [falling, full curve, poor fit].

With `Cc1c(OCC(F)(F)F)ccnc1CS(=O)c1nc2ccccc2[nH]1` (stereo not drawn) the AC50 [2] was 112 nM [falling, full curve, poor fit] and 89.1 nM [falling, full curve, poor fit] and 3.98 µM [rising, partial curve, poor fit] and the AC50 [1] was 126 nM [falling, full curve, poor fit] and 20 µM [rising, single point].

In the case of `COc1ccc2c(c1OC)CN1CCc3cc4c(cc3[C@H]1C2)OCO4`, the AC50 [2] is reported as 0.631 µM [falling, full curve, poor fit] and the AC50 [1] is reported as 0.355 µM [falling, full curve, poor fit].

In the case of `Nc1nc(F)nc2c1ncn2[C@@H]1O[C@H](CO)[C@@H](O)[C@@H]1O`, the AC50 [2] is reported as 31.6 µM [rising, single point] and the AC50 [1] is reported as 35.5 µM [rising, single point].

In the case of `CCOP(=O)(OCC)C(NC(=O)Nc1ccc(C)c(Cl)c1)c1ccccc1` (stereo not drawn), the AC50 [2] is reported as 15.8 µM [rising, single point] and the AC50 [1] is reported as 20 µM [rising, single point].

In the case of `CCCCCn1c(=O)c(C(=O)Nc2c(C)n(C)n(-c3ccccc3)c2=O)c(O)c2ccccc21`, the AC50 [2] is reported as 7.08 µM [falling, partial curve].

For `CCc1ccccc1NC(=O)C(CC)Oc1ccccc1-c1nnc(-c2ccccc2)o1` (stereo not drawn), the AC50 [2] was 0.00891 µM [falling, full curve, poor fit] and the AC50 [1] was 0.00501 µM [falling, full curve, poor fit].

In the case of `CC(=O)c1ccccc1NC(=O)C1C2CCC(O2)C1C(=O)O` (stereo not drawn), the AC50 [2] is reported as 35.5 µM [rising, single point] and the AC50 [1] is reported as 35.5 µM [rising, single point].

In the case of `CCc1nc(SC)ncc1C(=O)Nc1ccc(Cl)cc1C(=O)c1ccccc1`, the AC50 [1] is reported as 17.8 µM [rising, single point].

For `CC(C)CCN1CCN(Cc2c(F)cccc2Cl)CC1CCO` (stereo not drawn), the AC50 [1] was 0.0355 µM [falling, full curve].

For `N#CCCn1cc(C(=O)Nc2ccc(F)cc2)c(-c2ccc([N+](=O)[O-])cc2)n1`, the AC50 [2] was 35.5 µM [falling, single point].

With `CCOc1ccccc1NC(=O)NCc1ccc2c(c1)CCN2C(=O)c1ccccc1` the AC50 [1] was 8.91 µM [rising, partial curve].

With `CN(N=O)c1cc(O)ccc1O` the AC50 [1] was 0.00447 µM [falling, full curve, poor fit].

For `O=c1oc2ccccc2n1CSC1=NCCS1`, the AC50 [1] was 8.91 µM [rising, partial curve, poor fit].

With `C[C@H]1CCC[C@H](O)CCCCCc2cc(O)cc(O)c2C(=O)O1` the AC50 [2] was 35.5 µM [falling, single point] and the AC50 [1] was 79.4 nM [falling, full curve, poor fit] and 3.55 µM [rising, full curve].

With `NC(Cc1cc(O)c(O)cc1O)C(=O)O` (stereo not drawn) the AC50 [2] was 1.58 µM [rising, partial curve, poor fit] and the AC50 [1] was 25.1 µM [rising, single point].

For `c1ccc(-c2nnc(SCc3nc4ccccc4[nH]3)o2)cc1`, the AC50 [2] was 25.1 µM [rising, partial curve] and the AC50 [1] was 25.1 µM [rising, partial curve].

With `CC1(C)OC(c2ccccc2)=C/C(=C/C=C2C(=O)NC(=S)NC2=O)O1` the AC50 [1] was 10 µM [rising, partial curve].

With `Cn1ncnc2c(=O)n(C)c(=O)nc1-2` the AC50 [2] was 0.708 µM [falling, full curve] and the AC50 [1] was 5.01 µM [falling, full curve].

Reference: PubChem BioAssay AID1487 (National Center for Advancing Translational Sciences (NCATS), 2009)
